Test results from patent US5510473.

Biological target: T1, RecA (Taq RecA) (Thermus aquaticus YT-1) (UniProt P48296)
T1 sequence: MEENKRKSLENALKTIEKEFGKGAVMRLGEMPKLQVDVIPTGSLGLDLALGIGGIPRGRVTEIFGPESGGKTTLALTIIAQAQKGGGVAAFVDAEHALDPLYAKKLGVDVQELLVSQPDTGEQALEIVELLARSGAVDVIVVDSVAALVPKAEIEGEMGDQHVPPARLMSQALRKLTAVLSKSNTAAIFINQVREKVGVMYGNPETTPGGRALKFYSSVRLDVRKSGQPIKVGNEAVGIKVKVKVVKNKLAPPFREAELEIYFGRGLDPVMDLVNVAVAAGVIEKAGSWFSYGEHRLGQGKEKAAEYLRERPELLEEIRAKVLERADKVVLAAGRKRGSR
Assay: filter binding
Conditions: maximum retention at 5 ug RecA with 15 ng oligo at 65 C; optimum 45-70 C (peak about 55 C), less than 10% activity above 75 C; 1.1 mM ADP, 0.3 mM ATP-gamma-S; purified recombinant protein; protein details: untagged, expressed in E. coli JM109 from pTrc99a; label: 5'-32P; single-stranded DNA

**Q.** Does “CTGCAATGATACCGCGAGACCCACGCTCAC [30-mer oligonucleotide]” bind?
**A.** binds

The exact form of at least one protein or probe is not confirmed. Protein sequences can lack the tags named with them.
